This assay addresses T1, AtFZL-YFP (Arabidopsis FZO-LIKE with a C-terminal YFP tag) (Arabidopsis thaliana) (UniProt Q1KPV0).
T1 sequence: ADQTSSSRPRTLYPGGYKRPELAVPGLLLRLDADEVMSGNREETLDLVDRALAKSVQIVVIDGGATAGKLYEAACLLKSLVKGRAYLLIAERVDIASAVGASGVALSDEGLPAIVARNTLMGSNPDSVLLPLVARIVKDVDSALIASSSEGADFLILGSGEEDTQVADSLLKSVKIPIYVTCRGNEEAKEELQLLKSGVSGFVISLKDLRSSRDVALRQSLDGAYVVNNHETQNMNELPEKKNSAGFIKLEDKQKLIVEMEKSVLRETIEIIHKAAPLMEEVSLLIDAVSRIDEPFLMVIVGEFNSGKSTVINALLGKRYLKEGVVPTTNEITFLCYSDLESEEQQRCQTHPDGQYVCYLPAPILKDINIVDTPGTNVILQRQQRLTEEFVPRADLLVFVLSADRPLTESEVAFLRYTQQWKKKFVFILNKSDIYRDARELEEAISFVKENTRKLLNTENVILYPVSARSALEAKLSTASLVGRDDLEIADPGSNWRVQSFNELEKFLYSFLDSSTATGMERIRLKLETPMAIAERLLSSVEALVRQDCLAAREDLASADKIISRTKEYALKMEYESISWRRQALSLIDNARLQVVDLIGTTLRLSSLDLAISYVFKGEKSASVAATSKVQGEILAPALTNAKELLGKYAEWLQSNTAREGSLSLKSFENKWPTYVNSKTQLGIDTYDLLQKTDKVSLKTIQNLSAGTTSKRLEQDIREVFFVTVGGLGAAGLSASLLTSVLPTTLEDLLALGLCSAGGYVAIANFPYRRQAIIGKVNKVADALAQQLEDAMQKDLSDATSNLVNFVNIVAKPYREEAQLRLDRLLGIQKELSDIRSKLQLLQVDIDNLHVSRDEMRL
As to the kind of experiment: co-IP.

These are yes or no findings as the source states them, for the method shown. In cells and extracts the contact can be indirect. Where a sequence is shown, tags or fusion partners need not be part of it.

B1: AtMFP1-RFP (Arabidopsis MAR BINDING FILAMENT-LIKE PROTEIN 1 with an RFP tag) (protein, UniProt Q9LW85 96-726)
chain: DERGNEIKTSKVDLETEVAVVSEGTSPNPFLALLNGLGIFSAGVLGALYALARQDTKAAEETIESLKNQLKDRERALVLKEKDFEAKLQHEQEERKKEVEKAKEEQLSLINQLNSAKDLVTELGRELSSEKKLCEKLKDQIESLENSLSKAGEDKEALETKLREKLDLVEGLQDRINLLSLELKDSEEKAQRFNASLAKKEAELKELNSIYTQTSRDLAEAKLEIKQQKEELIRTQSELDSKNSAIEELNTRITTLVAEKESYIQKLDSISKDYSALKLTSETQAAADAELISRKEQEIQQLNENLDRALDDVNKSKDKVADLTEKYEDSKRMLDIELTTVKNLRHELEGTKKTLQASRDRVSDLETMLDESRALCSKLESELAIVHEEWKEAKERYERNLDAEKQKNEISASELALEKDLRRRVKDELEGVTHELKESSVKNQSLQKELVEIYKKVETSNKELEEEKKTVLSLNKEVKGMEKQILMEREARKSLETDLEEAVKSLDEMNKNTSILSRELEKVNTHASNLEDEKEVLQRSLGEAKNASKEAKENVEDAHILVMSLGKEREVLEKKVKKLEEDLGSAKGEILRMRSQPDSVKAVNSTDNKEKSDNTVTVKKVVRRRKSSTSS
Take B1: the binding entry is recorded as “no binding”.
